Source: patent US10130590B2, “Methods of treating cancer with atovaquone-related compounds” (DANA-FARBER CANCER INSTITUTE, INC., priority 2013, dated 2018)
At least one structure is not confirmed: it was looked up by name or label, or the drawing left a doubt.

Tested on: malignant hematological cell lines that lack STAT3 activation
Assay: Cell viability of hematologic cancer cells lacking STAT3 activation
Type: cell-based
Details: K562 and AML2, 72 hours
Procedure: Western blotting was performed as previously described (Battle T E, Arbiser J, & Frank D A (2005) The natural product honokiol induces caspase dependent apoptosis in B-cell chronic lymphocytic leukemia (B-CLL) cells. Blood 106(2):690-697). Antibodies to phospho-MAPK (9101), total MAPK (9102), phospho-Y705 STAT3 (9131), phospho-S6 (2215), total S6 (2217), phospho-4E-BP1 (9451), total 4E-BP1 (9644), total RSK (9355), phospho-S6K (9234, 85 used at 1:5000), total S6K (2708), phospho-eIF2α (9721, used at 1:1000), total eIF2α (5324), ATF4 (11815, used at 1:1000), PDGFRβ (3169), IGF1Rβ (9750), EGFR (2232), and HER2 (2242) were from Cell Signaling Technology. Phospho-RSK antibody was from R&D (AF889). Antibodies to total STAT3 (sc-482) and gp130 (sc-656, used at 1:1000) were from Santa Cruz Biotechnology. Phospho-S727 STAT3 antibody was described previously (229). REDD1 antibody was from Proteintech (10638-1-AP, used at 1:1000). Antibody recognizing full-length and cleaved ATF6 was from Abcam (ab122897, used at 1:1000). Antibodies to tubulin (T5168) and beta actin (A5316) were from Sigma. All antibodies were used at 1:10000 dilution for western blot unless otherwise noted. […] Cell viability was measured as ATP-dependent luminescence by Cell Titer Glo (Promega). […]

For `CO[C@H]1C[C@@H]2CC[C@@H](C)[C@@](O)(O2)C(=O)C(=O)N2CCCC[C@H]2C(=O)O[C@H]([C@H](C)C[C@@H]2CC[C@@H](O)[C@H](OC)C2)CC(=O)[C@H](C)/C=C(\C)[C@@H](O)[C@@H](OC)C(=O)[C@H](C)C[C@H](C)/C=C/C=C/C=C/1C` [rapamycin], the “viability of cancer cells lacking STAT3 activation (rapamycin)” value was “only a modest decrease in viability”.
